According to paper PMC10815436, “Toward New AQP4 Inhibitors: ORI-TRN-002” (International Journal of Molecular Sciences, 2024):

system: human alpha acid glycoprotein; assay: Alpha acid glycoprotein affinity (BRAINstorm affinity chromatography); format: binding

| SMILES | logKaAGP (log10 of human alpha acid glycoprotein affinity constant) |
| --- | --- |
| O=C(Nc1cc(C(F)(F)F)cc(C(F)(F)F)c1)c1cc(Cl)ccc1O [AER-270, N-[3,5-bis (trifluoromethyl)phenyl]-5-chloro-2-hydroxybenzamide] | 6.94 |
| O=C(Nc1nncs1)c1cccnc1 [TGN-020, 2-(nicotinamide)-1,3,4-thiadiazole] | 1.18 |
| O=c1[nH]c(-c2cccnc2)nc2[nH]ncc12 [ORI-TRN-002, 6-(pyridin-3-yl)-1H-pyrazolo[3,4-d]pyrimidin-4(5H)-one] | 1.88 |
